No constants are given. Whether binding was seen depends on the method and setting. Some results given as binding are weak or reduced against the parent protein; the word gives no strength.
Key:
[1] = biological target: NKG2D receptor expressed on the surface of mouse Ba/F3 cells (human) (UniProt P26718); experiment: FACS on Ba/F3-NKG2D cells, blocking of anti-NKG2D staining by RL5 supernatant
[2] = biological target: NKG2D receptor expressed on the surface of mouse Ba/F3 cells (human) (UniProt P26718); experiment: FACS on Ba/F3-NKG2D cells, binding inferred from loss of anti-NKG2D staining after incubation with RL5 supernatant

The chains behind the UniProt entries cited, without tags or fusion partners.
UniProt P26718: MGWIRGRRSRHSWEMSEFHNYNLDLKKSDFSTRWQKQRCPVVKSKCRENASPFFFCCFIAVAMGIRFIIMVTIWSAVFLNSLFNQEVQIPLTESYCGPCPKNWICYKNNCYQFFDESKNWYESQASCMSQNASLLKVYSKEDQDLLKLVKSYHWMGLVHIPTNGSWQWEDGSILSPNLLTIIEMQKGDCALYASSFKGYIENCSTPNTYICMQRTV

- binding [1]: binds
- binding [2]: binds
B1: RL5 protein (secreted, in the supernatant of 293T cells transfected with pCDEF3-RL5) (ligand)
chain: DPHSLCYDITVIPKFRPGPRWCAVQGQVDEKTFLHYDCGSKTVTPVSPLGKKLNVTTAWKAQNPVLREVVDILTEQLLDIQLENYIPKEPLTLQARMSCEQKAEGHGSGSWQLSFDGQIFLLFDSENRMWTTVHPGARKMKEKWENDKDMTMSFHYISMGDCTGWLEDFLMGMDSTLEPSAGGTV
